Data published in patent US5844078A, “Phenyl peptides, method for preparing same, and pharmaceutical compositions containing said peptides” (priority 1995, dated 1998).
At least one peptide structure holds a part that was inferred or is arguable (an end, a ring closure or a residue). Where a SMILES comes first, the peptide text is derived from it.

Tested on: HIV-1 Bru
Assay: Inhibition in vitro of the replication of the HIV-1 virus on the MT4 cell line (syncytia / reverse transcriptase)
Type: cell-based
Settings: for IC50: MT4 cells, viral strain HIV-1 Bru, concentration required to inhibit the formation of syncytia by 50% relative to control; for inhibition of HIV viral replication (in words): infected MT4 cell cultures

| SMILES | IC50 | inhibition of HIV viral replication (in words) |
| --- | --- | --- |
| C=CCOC(=O)C(NC(=O)[C@H](CC(C)C)NC(=O)OC(C)(C)C)Sc1ccccc1 (stereo partly drawn) [Compound 7, BocNH-Leu-(S)PheOCH2 -CH=CH2] | inactive | not to be active |
| CC(C)C[C@H](NC(=O)OC(C)(C)C)C(=O)NC(Sc1ccccc1)C(=O)O (stereo partly drawn) [Compound 2, BocNH-Leu-(S)PheOH] | inactive | not to be active |
| CC[C@H](C)[C@H](N)C(=O)N[C@@H](CCCNC(=N)N)C(=O)N[C@@H](CCCCN)C(=O)N[C@H](C(=O)N[C@@H](CC(C)C)C(=O)N[C@@H](Cc1ccccc1)C(=O)N[C@@H](CC(C)C)C(=O)N[C@@H](CC(=O)O)C(=O)NCC(=O)N[C@H](C(=O)O)[C@@H](C)CC)[C@@H](C)CC [Compound 1, Ile-Arg-Lys-Ile-Leu-Phe-Leu-Asp-Gly-Ile-OH, reference compound] (H-IRKILFLDGI-OH) | inactive |  |
